Binding data for one molecule are collected here from PMC12803513.

These are yes or no findings as the source states them, for the method shown. In cells and extracts the contact can be indirect.

The assay concerns the target human Tau (Tubulin-associated unit) (human). The assay can be described thus: co-IP; conditions, lysate and precipitated protein not told; no data shown.

B1: Prefoldin 5 (protein, UniProt Q9VCZ8 1-168)
chain: MAATPSAPAKSEMIDLTKLSPEQLIQIKQEFEQEITNVQDSLSTLHGCQAKYAGSKEALGTFQPNWENRQILVPLTSSMYVPGRVKDLNRFVIDIGTGYYIEKDLEGSKDYFKRRVEYVQEQIEKIEKIHLQKTRFYNSVMSVLEMKQAAAAKLQSQQQSQPAVTQSS
In the case of B1, the binding result is listed as “no binding”.
